Data as given in PubChem BioAssay AID1224828 (NIAID, 2016).
Aim: 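Find genes required for NF-kappaB p65 moving into the nucleus after LPS in mouse macrophages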 (primary screen). System: mouse RAW264.7 G9 macrophage reporter cells (GFP-p65, Tnf promoter-mCherry). Reagent: siRNA pool against mouse genes, 100 nM. Duration: 2 days siRNA transfection, then 40 min LPS before fixation. Conditions: LPS (Salmonella minnesota R595) at 10 ng/ml. Measured: 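Microscopy ratio of nuclear to perinuclear-ring GFP-p65 signal, scaled to the plate median; gene score is the average of two replicate robust z-scores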. Direction: p65 translocation robust z-score: higher = more nuclear NF-kappaB p65 after LPS than the plate median; nuclear/cytoplasmic p65 ratio: higher = more nuclear NF-kappaB p65. Hit rule: 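Active if robust z is above 3.3 (negative regulators) or below -1.56, the Tlr4 control median (positive regulators); activity score 50 or more; control wells not called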. Calls: active = hit (p65 shift raised or lowered); inactive = no clear change.
In all, the deposit lists about 17,000 reagents; this is a random part of them. 762 of all reagents (4.5%) count as active. 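Active calls include both raised and lowered p65 entry, mostly lowered; wells with fewer than 50 cells lack a z-score.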 Raw values vary from plate to plate and are shown uncorrected. Unmarked entries are inactive. The numbers tell different reagents against one gene apart.

Limk2 → p65 translocation robust z-score = 0.23; nuclear/cytoplasmic p65 ratio, rep 1 = 1.56; nuclear/cytoplasmic p65 ratio, rep 2 = 1.4; low cell count flag = enough cells to score
Hdac7 → p65 translocation robust z-score = -1.68 (active); nuclear/cytoplasmic p65 ratio, rep 1 = 1.19; nuclear/cytoplasmic p65 ratio, rep 2 = 1.18; low cell count flag = enough cells to score
Cyb561d2 → p65 translocation robust z-score = -1.57 (active); nuclear/cytoplasmic p65 ratio, rep 1 = 1.24; nuclear/cytoplasmic p65 ratio, rep 2 = 1.2; low cell count flag = enough cells to score
Gzmg → p65 translocation robust z-score = 0.58; nuclear/cytoplasmic p65 ratio, rep 1 = 1.5; nuclear/cytoplasmic p65 ratio, rep 2 = 1.64; low cell count flag = enough cells to score
Rpl7l1 → p65 translocation robust z-score = 0.76; nuclear/cytoplasmic p65 ratio, rep 1 = 1.59; nuclear/cytoplasmic p65 ratio, rep 2 = 1.6; low cell count flag = enough cells to score
Arhgap22 → p65 translocation robust z-score = 0.51; nuclear/cytoplasmic p65 ratio, rep 1 = 1.59; nuclear/cytoplasmic p65 ratio, rep 2 = 1.67; low cell count flag = enough cells to score
Or4c127 → nuclear/cytoplasmic p65 ratio, rep 1 = 1.41; nuclear/cytoplasmic p65 ratio, rep 2 = 1.5; low cell count flag = fewer than 50 cells per well; well left out of scoring
H2ac25 → nuclear/cytoplasmic p65 ratio, rep 1 = 1.31; nuclear/cytoplasmic p65 ratio, rep 2 = 1.14; low cell count flag = fewer than 50 cells per well; well left out of scoring
Sfmbt1 #1 → p65 translocation robust z-score = -0.47; nuclear/cytoplasmic p65 ratio, rep 1 = 1.33; nuclear/cytoplasmic p65 ratio, rep 2 = 1.21; low cell count flag = enough cells to score
Sfmbt1 #2 → p65 translocation robust z-score = 1.28; nuclear/cytoplasmic p65 ratio, rep 1 = 1.58; nuclear/cytoplasmic p65 ratio, rep 2 = 1.75; low cell count flag = enough cells to score
Or10v1 → p65 translocation robust z-score = 1.04; nuclear/cytoplasmic p65 ratio, rep 1 = 1.79; nuclear/cytoplasmic p65 ratio, rep 2 = 1.54; low cell count flag = enough cells to score
Auh → p65 translocation robust z-score = -0.16; nuclear/cytoplasmic p65 ratio, rep 1 = 1.69; nuclear/cytoplasmic p65 ratio, rep 2 = 1.5; low cell count flag = enough cells to score
Nrp2 → p65 translocation robust z-score = 0.19; nuclear/cytoplasmic p65 ratio, rep 1 = 1.46; nuclear/cytoplasmic p65 ratio, rep 2 = 1.45; low cell count flag = enough cells to score
Anks3 → nuclear/cytoplasmic p65 ratio, rep 1 = 1.15; nuclear/cytoplasmic p65 ratio, rep 2 = 1.28; low cell count flag = fewer than 50 cells per well; well left out of scoring
Tnfsf14 → p65 translocation robust z-score = -1.69 (active); nuclear/cytoplasmic p65 ratio, rep 1 = 1.27; nuclear/cytoplasmic p65 ratio, rep 2 = 1.33; low cell count flag = enough cells to score
Sfxn1 → p65 translocation robust z-score = 0.25; nuclear/cytoplasmic p65 ratio, rep 1 = 1.45; nuclear/cytoplasmic p65 ratio, rep 2 = 1.27; low cell count flag = enough cells to score
Suclg1 → p65 translocation robust z-score = -0.19; nuclear/cytoplasmic p65 ratio, rep 1 = 1.29; nuclear/cytoplasmic p65 ratio, rep 2 = 1.3; low cell count flag = enough cells to score
Pi4k2a → p65 translocation robust z-score = -1.02; nuclear/cytoplasmic p65 ratio, rep 1 = 1.64; nuclear/cytoplasmic p65 ratio, rep 2 = 1.25; low cell count flag = enough cells to score
Spp1 → p65 translocation robust z-score = 0.04; nuclear/cytoplasmic p65 ratio, rep 1 = 1.44; nuclear/cytoplasmic p65 ratio, rep 2 = 1.22; low cell count flag = enough cells to score
Zfp653 → nuclear/cytoplasmic p65 ratio, rep 1 = 1.24; nuclear/cytoplasmic p65 ratio, rep 2 = 1.23; low cell count flag = fewer than 50 cells per well; well left out of scoring
Tpst1 → p65 translocation robust z-score = -0.68; nuclear/cytoplasmic p65 ratio, rep 1 = 1.21; nuclear/cytoplasmic p65 ratio, rep 2 = 1.17; low cell count flag = enough cells to score

Not a retest: an excerpt of the list.
Zfp653 → nuclear/cytoplasmic p65 ratio, rep 1 = 1.24; nuclear/cytoplasmic p65 ratio, rep 2 = 1.23; low cell count flag = fewer than 50 cells per well; well left out of scoring
Tpst1 → p65 translocation robust z-score = -0.68; nuclear/cytoplasmic p65 ratio, rep 1 = 1.21; nuclear/cytoplasmic p65 ratio, rep 2 = 1.17; low cell count flag = enough cells to score
